Measurements reported in article PMC5078048.
No constants are given. Whether binding was seen depends on the method and setting. In cells and extracts the contact can be indirect. Some binding calls cover weakened binding; strength is not graded here.

Protein sequences, listed by entry. Tags and fused reporters are not part of them.
UniProt Q99081: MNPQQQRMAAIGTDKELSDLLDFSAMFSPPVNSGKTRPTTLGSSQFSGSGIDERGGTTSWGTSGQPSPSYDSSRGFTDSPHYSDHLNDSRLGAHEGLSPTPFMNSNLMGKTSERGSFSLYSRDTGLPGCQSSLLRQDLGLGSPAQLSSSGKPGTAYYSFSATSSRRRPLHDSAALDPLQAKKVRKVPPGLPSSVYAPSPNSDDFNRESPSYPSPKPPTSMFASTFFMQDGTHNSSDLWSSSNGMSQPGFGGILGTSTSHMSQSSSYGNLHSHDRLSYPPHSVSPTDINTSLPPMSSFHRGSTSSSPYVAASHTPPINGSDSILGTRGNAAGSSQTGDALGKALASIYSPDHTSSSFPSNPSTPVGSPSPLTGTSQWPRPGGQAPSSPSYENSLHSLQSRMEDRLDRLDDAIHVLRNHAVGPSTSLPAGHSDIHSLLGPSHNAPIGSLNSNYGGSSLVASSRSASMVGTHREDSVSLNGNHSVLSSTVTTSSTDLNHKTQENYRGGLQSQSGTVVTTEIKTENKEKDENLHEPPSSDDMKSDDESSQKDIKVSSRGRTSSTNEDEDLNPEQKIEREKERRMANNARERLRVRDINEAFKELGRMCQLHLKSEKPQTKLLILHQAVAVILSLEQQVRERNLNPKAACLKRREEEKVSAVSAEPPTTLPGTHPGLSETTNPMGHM
UniProt Q13547: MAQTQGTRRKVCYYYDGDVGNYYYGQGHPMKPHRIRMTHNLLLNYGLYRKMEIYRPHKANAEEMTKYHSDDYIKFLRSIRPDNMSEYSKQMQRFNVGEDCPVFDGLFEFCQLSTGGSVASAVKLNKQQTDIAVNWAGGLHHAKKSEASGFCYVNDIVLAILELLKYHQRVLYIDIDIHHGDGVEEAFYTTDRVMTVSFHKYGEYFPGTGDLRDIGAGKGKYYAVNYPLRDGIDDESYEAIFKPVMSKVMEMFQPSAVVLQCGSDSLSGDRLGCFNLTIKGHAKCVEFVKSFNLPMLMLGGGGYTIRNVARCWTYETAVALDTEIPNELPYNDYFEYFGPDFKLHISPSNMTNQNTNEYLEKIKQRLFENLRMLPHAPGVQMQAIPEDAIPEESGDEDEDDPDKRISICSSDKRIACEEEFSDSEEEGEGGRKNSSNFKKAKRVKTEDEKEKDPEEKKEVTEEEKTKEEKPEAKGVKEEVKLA

Target: TCF-12 (human (endogenous in GBC-SD)) (UniProt Q99081)
Assay: co-IP; proteins from GBC-SD cells; TCF-12 antibody against non-specific IgG control; mRIPA buffer (50 mM Tris pH 7.5, 150 mM NaCl, 5 mM EDTA, 0.1% Triton-X100, 0.1% Nonidet P-40), Protein-A agarose beads, 4°C; western blot

binding: binds
Substance: HDAC1 (from UniProt Q13547 1-482)
